{
  "source": "patent US20230002446A1",
  "about": "(The University of Sydney, priority 2019, published 2023)",
  "test": "general procedure: peptide synthesis; Chemmatrix CTC resin",
  "details": "whole synthesis, scale 12.5 μmol",
  "note": "[ ]: non-standard residue; d: D form. AEEA = NCCOCCOCC(=O)O",
  "data": [
    {"substance": "H-KKKK[AEEA]MTPGTQSPFFLLLLLTVLTVV-OH (SMILES CSCC[C@H](NC(=O)COCCOCCNC(=O)[C@H](CCCCN)NC(=O)[C@H](CCCCN)NC(=O)[C@H](CCCCN)NC(=O)[C@@H](N)CCCCN)C(=O)N[C@H](C(=O)N1CCC[C@H]1C(=O)NCC(=O)N[C@H](C(=O)N[C@@H](CCC(N)=O)C(=O)N[C@@H](CO)C(=O)N1CCC[C@H]1C(=O)N[C@@H](Cc1ccccc1)C(=O)N[C@@H](Cc1ccccc1)C(=O)N[C@@H](CC(C)C)C(=O)N[C@@H](CC(C)C)C(=O)N[C@@H](CC(C)C)C(=O)N[C@@H](CC(C)C)C(=O)N[C@@H](CC(C)C)C(=O)N[C@H](C(=O)N[C@H](C(=O)N[C@@H](CC(C)C)C(=O)N[C@H](C(=O)N[C@H](C(=O)N[C@H](C(=O)O)C(C)C)C(C)C)[C@@H](C)O)C(C)C)[C@@H](C)O)[C@@H](C)O)[C@@H](C)O)", "values": [
      {"measurement": "isolated mass", "value": 9.6, "unit": "mg"},
      {"measurement": "isolated yield", "value": 26, "unit": "%"}
    ]}
  ]
}
